Measured values reported in patent US12076417B2, “Plasma-derived nanoparticles” (NANOMEDX, INC., priority 2016, dated 2024).

Assay: Quantification of molecular cargo bound to nanoP^3
Conditions: 10^9 nanoP^3/mL; room temperature; RT-PCR grade water pH=7; 1 hour

Row | SMILES | cargo mass at surface saturation of nanoP^3 [µg]
1 | CC(=O)O[C@H]1C(=O)[C@@]2(C)[C@H]([C@H](OC(=O)c3ccccc3)[C@]3(O)C[C@H](OC(=O)[C@H](O)[C@@H](NC(=O)c4ccccc4)c4ccccc4)C(C)=C1C3(C)C)[C@]1(OC(C)=O)CO[C@@H]1C[C@@H]2O [paclitaxel, Paclitaxel-Oregon Green 488] | 2.3
2 | CC1(C)C(/C=C/C=C/C=C/C=C2\N(CCCCS(=O)(=O)[O-])c3ccc4ccccc4c3C2(C)C)=[N+](CCCCS(=O)(=O)[O-])c2ccc3ccccc3c21.[Na+] [ICG, sodium 4-[2-[(1E,3E,5E,7Z)-7-[1,1-dimethyl-3-(4-sulfonatobutyl)benzo[e]indol-2ylidene]hepta-1,3,5-trienyl]-1,1-dimethylbenzo[e]indol-3-ium-3-yl]butane-1-sulfonate] | 2.9
